In PubChem BioAssay AID504444 (National Center for Advancing Translational Sciences (NCATS), 2011):
Among all 360,000 compounds or so, about 7,500 (2.1%) were called active. This list was built around the results that the source calls inconclusive (neither active nor inactive); the mix of calls is not that of the screen. Calls follow the shape of the dose curve; as a rule, active = well fitted inhibition curve with a large enough effect; inconclusive = small, poorly fitted or top-dose-only effect, or effect the other way; inactive = flat fitted curve, though single readings scatter. Potencies beside an inconclusive call are fits to weak or partial responses and may not hold up.

Assay: Nrf2 qHTS screen for inhibitors; also: nearly all actives have a fitted effect of over 60% in size
Conditions: A549 ARE-Fluc reporter, luciferase luminescence, 18-24 h; series mostly up to 46 µM
Procedure, shortened: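 A549 ARE_Fluc cells, 5000/well, 5% FBS OPTI-MEM; compounds in dose-response, 18-24 h at 37 °C/5% CO2; CellTiter-Fluor viability read (Ex 405/Em 525), then BugLite luciferase luminescence = Nrf2 activity.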
Potency is read from the fitted curve at half-maximal effect.

Structure (SMILES) | Potency
CC(=O)c1ccc(NC(=S)NC(C)c2ccc(Cl)cc2Cl)cc1 (stereo unspecified) | inconclusive: 20.6 µM [falling, single point]
COc1ccccc1N1CCN(C(=O)CCCNC(=O)Cn2cnc3sc(C)c(C)c3c2=O)CC1 | active: 23.1 µM
Cc1ccc(C(=O)NC2CCCCCCC2)c(Cl)c1 | inconclusive: 0.731 µM [activator, partial curve]
Cc1ccc2nc(-c3ccccc3F)c(Nc3ccc(Cl)cc3)n2c1 | inconclusive: 20.6 µM [falling, single point]
Cc1cc(NC(=O)CCC(=O)N(c2cccnc2)C(C(=O)NC2CCCC2)c2ccccc2F)no1 (stereo unspecified) | inactive
CN(CC(=O)Nc1ccc(Cl)cc1)C(=O)c1cc(-c2cccs2)nn1-c1ccccc1 | inconclusive: 23.1 µM [falling, single point]
O=[N+]([O-])c1ccc2nc(-c3ccccc3)oc2c1 | inconclusive: 23.1 µM [activator, partial curve]
C=CCNC(=O)c1cc(-c2ccc3c(c2)OCO3)on1 | inconclusive: 0.291 µM [activator, partial curve, poor fit]
Cc1ccccc1/C=N/Nc1ccnc2cc(Cl)ccc12 | inactive
COc1cccc(-n2cc(C(=O)NCCc3ccc(C)cc3)c3ccccc3c2=O)c1 | inactive
O=C1Nc2ccccc2/C1=C/c1cnc(-c2ccccc2)[nH]1 | inconclusive: 14.6 µM [activator, partial curve]
COC(=O)c1ccc(CNC(=O)Cn2cnnn2)cc1 | inconclusive: 20.6 µM [falling, partial curve, poor fit]
O=C(Nc1nc2ccc(S(=O)(=O)N3CCCC3)cc2s1)c1ccccn1 | inconclusive: 29.1 µM [falling, single point]
CC1CN(CCCCOc2ccc(C(C)C)cc2)CC(C)O1 (stereo unspecified) | inconclusive: 29.1 µM [falling, single point]
Cc1c(C)c2c(cc(C)c3c(-c4ccccc4)coc32)oc1=O | inactive
CSc1ccccc1NC(=O)CN(C)C(=O)COc1cccc2cccnc12 | inactive
O=[N+]([O-])c1ccccc1CSc1nnc2ccccn12 | inconclusive: 7.31 µM [activator, partial curve]
COc1ccc(C(=O)c2coc(-c3ccccc3C(=O)O)c2C(=O)O)cc1 | inactive
C=CCN1CC(c2nc3ccccc3n2Cc2cccc3ccccc23)CC1=O (stereo unspecified) | inconclusive: 29.1 µM [falling, single point]
O=C(O)c1cccc(NC(=S)NC(=O)c2ccc(-c3ccccc3)cc2)c1 | inconclusive: 8.2 µM [activator, partial curve, poor fit]
CCOC(=O)CCNC(=O)CCc1nnc(CCCc2ccccc2)o1 | inconclusive: 10.3 µM [activator, partial curve]
COc1cc(-c2nc(Cn3nnc(C(=O)Nc4ccccc4)c3C)c(C)o2)cc(OC)c1OC | inconclusive: 13 µM [falling, partial curve, poor fit]

Structure (SMILES) | Potency
COc1ccc2[nH]c(=O)c(CN(c3ccccc3)S(=O)(=O)c3ccccc3)cc2c1 | inactive
COc1ccc(CNC(=O)[C@H](C)NC(=O)N2CCn3c2nc2ccccc23)cc1 | inactive
CCN(CC)CCN(C(=O)c1ccc2c(c1)CCCC2)c1nc2ccc(F)cc2s1 | inconclusive: 5.17 µM [activator, partial curve, poor fit]
CC12CC(NC(=O)N1c1cccc(C(=O)NCc3ccc4c(c3)OCO4)c1)c1cc(Cl)ccc1O2 (stereo unspecified) | inconclusive: 29.1 µM [falling, single point]
O=C(Nc1cc2c(cc1C(=O)c1ccccc1)OCCO2)c1ccc(Br)cc1 | inconclusive: 3.66 µM [falling, single point]
O=C(Nc1cccc(S(=O)(=O)C(F)F)c1)c1ccc(S(=O)(=O)N2CCCC2)cc1 | active: 5.8 µM
Cn1c(CSCc2ccc(Cl)cc2)n[nH]c1=S | inconclusive: 29.1 µM [falling, single point]
COc1cccc(CN(C)C(=O)c2ccc(COc3ccc(Cl)cc3)cc2)c1OC | inconclusive: 29.1 µM [falling, single point]
COc1ccccc1CNC(=O)C1Cc2cc(S(=O)(=O)N3CCCC3)ccc2N1C(C)=O (stereo unspecified) | inconclusive: 29.1 µM [activator, single point]
CNC(=S)N1CCN(c2nc(-c3ccc(F)cc3)cs2)CC1 | inconclusive: 14.6 µM [falling, partial curve, poor fit]
CN(CC(=O)Nc1nc2ccccc2s1)S(=O)(=O)c1ccccc1 | inconclusive: 7.31 µM [activator, partial curve]
N=C1SC(CC(=O)Nc2ccc([N+](=O)[O-])cc2)C(=O)N1c1ccccc1 (stereo unspecified) | inconclusive: 20.6 µM [falling, partial curve, poor fit]
O=C(Nc1ccc2c(c1)OCO2)c1c(F)cccc1F | inconclusive: 2.06 µM [activator, full curve]
O=C1CCCCC1 | inactive
CCN1CCN(Cc2ccc(OCc3ccccc3)c(OC)c2)CC1 | inconclusive: 18.4 µM [activator, single point]
Cc1ccc(NC(=O)Nc2ccnc(-c3cccnc3)n2)cc1 | inconclusive: 0.92 µM [falling, full curve]
Cc1nc([N+](=O)[O-])c(Br)n1Cc1ccc(Cl)c(Cl)c1 | active: 16.4 µM
COc1ccc(OCc2cc(C(=O)N3CCN(C4CCCC4)CC3)no2)c(Cl)c1 | inconclusive: 2.59 µM [activator, full curve]
Cc1ccccc1-c1nc(-c2ccc(Br)o2)no1 | inconclusive: 11.6 µM [activator, partial curve]
O=C(CCc1ccccc1)NCCSc1ccccc1 | inconclusive: 16.4 µM [activator, partial curve]
COc1ccccc1NC(=O)c1ccc(COc2ccccc2OC)o1 | inconclusive: 7.31 µM [falling, partial curve, poor fit]
Cc1ccc(S(=O)(=O)N(CC(=O)NCC2CCCO2)C2CCCCC2)cc1 (stereo unspecified) | inactive

A different layout for three compounds above.
Structure (SMILES),Potency
O=C(Nc1cc2c(cc1C(=O)c1ccccc1)OCCO2)c1ccc(Br)cc1,"inconclusive: 3.66 µM [falling, single point]"
O=C(Nc1cccc(S(=O)(=O)C(F)F)c1)c1ccc(S(=O)(=O)N2CCCC2)cc1,active: 5.8 µM
Cn1c(CSCc2ccc(Cl)cc2)n[nH]c1=S,"inconclusive: 29.1 µM [falling, single point]"

Entries listed so far that contain a thiophene ring, fused or not:
Structure (SMILES) | Potency
COc1ccccc1N1CCN(C(=O)CCCNC(=O)Cn2cnc3sc(C)c(C)c3c2=O)CC1 | active: 23.1 µM
CN(CC(=O)Nc1ccc(Cl)cc1)C(=O)c1cc(-c2cccs2)nn1-c1ccccc1 | inconclusive: 23.1 µM [falling, single point]

(cont.)

Structure (SMILES) | Potency
COc1ccc(S(=O)(=O)N(CC(=O)NCCC(C)C)c2ccccc2)cc1OC | inconclusive: 25.9 µM [falling, single point]
CN(C)c1ccc(C(=O)n2nnc3ccccc32)cc1 | inconclusive: 20.6 µM [falling, partial curve, poor fit]
COc1ccc(C2(Nc3cccc(C(=O)O)c3C)C(=O)c3ccccc3C2=O)cc1 | inconclusive: 18.4 µM [activator, partial curve, poor fit]
CCOC(=O)C1(CC2CC2)CCN(C(=O)c2cc(OC)nc3ccccc23)CC1 | inconclusive: 20.6 µM [activator, single point]
CC(=O)N1c2ccc(S(=O)(=O)NCCC(=O)NCCc3cccc(C)c3)cc2CC1C (stereo unspecified) | inconclusive: 23.1 µM [falling, single point]
COc1ccc(C(=O)OCC(=O)c2ccc(S(=O)(=O)N3CCCCC3)cc2)c(OC)c1 | inconclusive: 32.6 µM [falling, single point]
Cc1cccc(C(=O)NC(C(=O)Nc2cccc(S(=O)(=O)N3CCCC3)c2)C(C)C)c1 (stereo unspecified) | inconclusive: 23.1 µM [falling, single point]
CC1=C(C(=O)N2CCCC(C(=O)c3cccc(C(F)(F)F)c3)C2)OCCO1 (stereo unspecified) | inconclusive: 29.1 µM [falling, partial curve, poor fit]
Cc1ccc(/C=C2/CCc3c([nH]c4ccccc34)C2=O)cc1 | inconclusive: 6.51 µM [activator, full curve]
CCn1c(C)nc2cc(C(=O)N/N=C(\C)c3ccc(OC)cc3O)ccc21 | active: 23.1 µM
CCCn1c2c(c(O)c(C(=O)Nc3ncccc3O)c1=O)CCCC2 | inconclusive: 11.6 µM [falling, single point]
O=C(CNCc1ccccc1Cl)Nc1ccc2c(c1)OCCO2 | inconclusive: 11.6 µM [activator, partial curve]
CC1CN(CC(=O)NCc2ccc(F)cc2)CC(C)O1 (stereo unspecified) | inconclusive: 16.4 µM [falling, partial curve, poor fit]
Cc1ccc(S(=O)(=O)NCC2CCC(C(=O)N3CCN(C)CC3)CC2)cc1 (stereo unspecified) | inconclusive: 23.1 µM [falling, single point]
COc1ccc(C2CC(=O)C3=C(C2)NC(C)=C(C#N)C3c2ccc(N(C)C)cc2)cc1 (stereo unspecified) | inconclusive: 32.6 µM [falling, single point]
COc1cccc(C(=O)Nc2ccc3nc(SCC(=O)N4CCOCC4)sc3c2)c1 | inactive
COc1ccc(C(=O)Nc2ccc(-c3ccc(C)o3)cc2)cc1S(=O)(=O)N1CCOCC1 | active: 18.4 µM
Cc1cc2oc(=O)cc(COC(=O)Cn3cnnn3)c2cc1C(C)C | inconclusive: 3.26 µM [falling, full curve]
Cc1ccc(S(=O)(=O)N2CCN(c3ncnc4sccc34)CC2)cc1C | inconclusive: 14.6 µM [falling, partial curve, poor fit]
Cc1ccc(NC(CC(=O)c2ccccc2)c2ccc(F)cc2)cc1 (stereo unspecified) | inconclusive: 2.31 µM [activator, partial curve, poor fit]
CCCCS(=O)(=O)c1oc(-c2cccs2)nc1S(=O)(=O)c1ccccc1 | inconclusive: 6.51 µM [activator, single point]
Cc1nn(-c2ccccc2)c(N2CCCC2)c1/C=N/n1cnc2scc(-c3ccccc3)c2c1=O | inconclusive: 6.51 µM [falling, single point]
